Earlier results, collected in US9568466B2, “In vitro assay for predicting renal proximal tubular cell toxicity” (priority 2012, dated 2017).

Test system: renal proximal tubule
Conditions: in vivo; cited from earlier work

## CC(C)c1c(C(=O)Nc2ccccc2)c(-c2ccccc2)c(-c2ccc(F)cc2)n1CC[C@@H](O)C[C@@H](O)CC(=O)O [Compound 41, Atorvastatin]
  nephrotoxicity in humans / direct damage of the renal proximal tubule: non-nephrotoxic in humans
